Data: paper PMC4513854

Amino acid sequences for entries named in this document (tags omitted).
UniProt P23511, whole entry: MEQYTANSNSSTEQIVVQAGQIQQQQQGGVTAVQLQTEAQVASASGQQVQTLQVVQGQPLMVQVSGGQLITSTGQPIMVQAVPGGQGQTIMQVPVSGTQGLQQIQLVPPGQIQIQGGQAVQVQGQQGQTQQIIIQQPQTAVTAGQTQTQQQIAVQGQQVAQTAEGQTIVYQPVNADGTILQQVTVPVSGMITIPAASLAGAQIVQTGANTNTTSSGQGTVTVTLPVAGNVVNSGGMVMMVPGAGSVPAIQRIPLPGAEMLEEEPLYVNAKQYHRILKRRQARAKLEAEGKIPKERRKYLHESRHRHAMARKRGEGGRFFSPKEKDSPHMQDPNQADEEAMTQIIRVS

Tests used:
[1] = molecular target: T1, SOX9 (recombinant human) (Homo sapiens) (UniProt P48436); assay: EMSA; conditions: EMSA: Active Motif Gelshift Chemiluminescent kit, buffer not stated, commercial protein, label: 5' biotin
T1 sequence (looked up, limits assumed): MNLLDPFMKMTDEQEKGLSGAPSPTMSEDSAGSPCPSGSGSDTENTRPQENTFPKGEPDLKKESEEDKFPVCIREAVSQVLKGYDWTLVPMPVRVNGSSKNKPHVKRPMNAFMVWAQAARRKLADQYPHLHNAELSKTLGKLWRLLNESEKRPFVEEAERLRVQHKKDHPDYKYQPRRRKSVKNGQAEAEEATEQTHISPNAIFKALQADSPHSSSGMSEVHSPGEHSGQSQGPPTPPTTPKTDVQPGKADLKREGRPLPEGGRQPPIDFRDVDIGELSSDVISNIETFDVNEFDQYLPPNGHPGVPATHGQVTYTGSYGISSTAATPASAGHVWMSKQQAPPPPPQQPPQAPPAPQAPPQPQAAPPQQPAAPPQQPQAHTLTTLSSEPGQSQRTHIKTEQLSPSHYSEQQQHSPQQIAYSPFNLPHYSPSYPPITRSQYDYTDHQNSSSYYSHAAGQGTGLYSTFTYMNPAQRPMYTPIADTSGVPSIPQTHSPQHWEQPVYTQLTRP

[2] = molecular target: T2, SOX9 (endogenous, HCT116 nuclear extract) (Homo sapiens) (UniProt P48436); assay: pull-down (biotin oligo, western blot); conditions: polyIC, Pull-down: 1x buffer from 5x stock (75 mM Hepes pH 7.9, 400 mM NaCl, 75 mM KCl, 0.1 mM EDTA, 5 mM DTT, 5 mM PMSF, 15% glycerol), i.e. 15 mM Hepes, 80 mM NaCl, 15 mM KCl, protein in an extract, label: 5' biotin
T2 sequence (looked up, limits assumed): T1 sequence (looked up, limits assumed)

[3] = molecular target: NF-YA (endogenous, HCT116 nuclear extract) (Homo sapiens) (UniProt P23511); assay: pull-down (biotin oligo, western blot); conditions: polyIC, Pull-down: 1x buffer from 5x stock (75 mM Hepes pH 7.9, 400 mM NaCl, 75 mM KCl, 0.1 mM EDTA, 5 mM DTT, 5 mM PMSF, 15% glycerol), i.e. 15 mM Hepes, 80 mM NaCl, 15 mM KCl, protein in an extract, label: 5' biotin

| Sequence | binding result [1] | binding result [2] | binding result [3] | binding result ([1]; without NF-Y) |
| --- | --- | --- | --- | --- |
| ATGACAAGGTCTTTTTGAAGTCACCTGGAATGCTCCCTTT (double strand) [RASSF3 oligo] | binds |  |  |  |
| TCCCGCCTCCCTAACCTGATTGGTTTATTCAAACAAACC (double strand) [WT TOP2A oligo] |  | binds | binds | no binding |
| TCCCGCCTCCCTAACCTGTTTGGTTTATTCAAACAAACC (double strand) [mutated TOP2A oligo (MTOP2A)] |  | binds more weakly | binds more weakly |  |

For at least one entry, the source does not settle the construct or the ends of the probe. For part of these data: No signal at the amounts used counts as a negative. For part of these data: Protein sequences can lack the tags named with them. For part of these data: Where cells or extracts were used, other partners may take part. For part of these data: Weaker means in comparison with the reference protein, sequence or condition of that experiment.
